Here are results for one substance from article PMC11798873.

Sequences of proteins named here, by UniProt entry; tags and fusion partners are left off. A change or cut given only in a name is not applied to a line headed by its entry.
UniProt O95718: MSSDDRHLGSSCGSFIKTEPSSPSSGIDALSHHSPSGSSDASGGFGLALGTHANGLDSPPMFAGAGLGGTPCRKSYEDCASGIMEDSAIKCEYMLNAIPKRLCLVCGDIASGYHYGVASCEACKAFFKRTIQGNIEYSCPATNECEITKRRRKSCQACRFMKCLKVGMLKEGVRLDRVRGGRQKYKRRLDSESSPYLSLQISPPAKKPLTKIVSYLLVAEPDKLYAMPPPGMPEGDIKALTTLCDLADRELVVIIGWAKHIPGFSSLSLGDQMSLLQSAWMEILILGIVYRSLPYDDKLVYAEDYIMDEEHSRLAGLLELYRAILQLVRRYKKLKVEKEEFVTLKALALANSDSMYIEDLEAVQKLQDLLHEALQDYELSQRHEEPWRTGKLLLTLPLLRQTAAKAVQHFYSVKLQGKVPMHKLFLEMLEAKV
UniProt Q61312: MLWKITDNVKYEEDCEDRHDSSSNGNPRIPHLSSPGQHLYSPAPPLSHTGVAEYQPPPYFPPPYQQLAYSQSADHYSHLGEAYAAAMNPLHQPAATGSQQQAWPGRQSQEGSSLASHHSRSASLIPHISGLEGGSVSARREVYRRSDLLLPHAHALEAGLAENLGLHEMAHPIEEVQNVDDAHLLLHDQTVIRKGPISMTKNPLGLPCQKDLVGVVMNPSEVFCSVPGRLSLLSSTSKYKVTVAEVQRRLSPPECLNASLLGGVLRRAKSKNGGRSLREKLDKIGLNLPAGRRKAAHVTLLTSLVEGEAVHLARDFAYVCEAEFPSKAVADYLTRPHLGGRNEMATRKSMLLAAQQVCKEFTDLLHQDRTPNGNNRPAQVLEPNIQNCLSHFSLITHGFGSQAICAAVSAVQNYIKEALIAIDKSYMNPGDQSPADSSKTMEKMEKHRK

Results are given in words; binding and its absence hold for the method and conditions named. In cells and extracts the contact can be indirect. A result given as binding can be weak or reduced; the word gives no strength.

The target of the experiment is ESRRB (human) (UniProt O95718). As to the kind of experiment: co-IP; anti-EOMES or anti-ESRRB on Dynabeads A and G; blot for TFAP2C; constant EOMES with increasing ESRRB, or constant ESRRB with increasing EOMES (amounts of transfected plasmid).

As for TFAP2C (from UniProt Q61312 1-449), the binding result is reported as “binds”.
